The text below walks through data of publication PMC5924763.

Protein sequences, listed by entry. Tags and fused reporters are not part of them.
UniProt O95905: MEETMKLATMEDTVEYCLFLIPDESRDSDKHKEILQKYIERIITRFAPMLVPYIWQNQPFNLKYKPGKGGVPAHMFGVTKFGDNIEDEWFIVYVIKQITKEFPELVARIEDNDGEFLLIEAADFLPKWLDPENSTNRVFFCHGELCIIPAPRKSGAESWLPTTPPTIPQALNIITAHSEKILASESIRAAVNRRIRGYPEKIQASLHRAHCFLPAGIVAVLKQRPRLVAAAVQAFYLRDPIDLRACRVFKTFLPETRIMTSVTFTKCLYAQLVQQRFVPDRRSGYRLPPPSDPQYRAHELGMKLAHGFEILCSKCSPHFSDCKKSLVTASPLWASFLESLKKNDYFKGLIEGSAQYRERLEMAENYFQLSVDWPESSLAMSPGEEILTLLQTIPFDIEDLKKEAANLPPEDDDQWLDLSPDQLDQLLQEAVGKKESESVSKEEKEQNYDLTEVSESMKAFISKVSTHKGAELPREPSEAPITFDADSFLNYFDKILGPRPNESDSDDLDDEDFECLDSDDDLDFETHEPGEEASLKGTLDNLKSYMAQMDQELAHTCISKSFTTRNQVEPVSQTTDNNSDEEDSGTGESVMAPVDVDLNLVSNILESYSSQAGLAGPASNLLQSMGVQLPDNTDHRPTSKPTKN

Test [1] addresses T1, Flag-hnRNP F (UniProt P52597).
T1 sequence: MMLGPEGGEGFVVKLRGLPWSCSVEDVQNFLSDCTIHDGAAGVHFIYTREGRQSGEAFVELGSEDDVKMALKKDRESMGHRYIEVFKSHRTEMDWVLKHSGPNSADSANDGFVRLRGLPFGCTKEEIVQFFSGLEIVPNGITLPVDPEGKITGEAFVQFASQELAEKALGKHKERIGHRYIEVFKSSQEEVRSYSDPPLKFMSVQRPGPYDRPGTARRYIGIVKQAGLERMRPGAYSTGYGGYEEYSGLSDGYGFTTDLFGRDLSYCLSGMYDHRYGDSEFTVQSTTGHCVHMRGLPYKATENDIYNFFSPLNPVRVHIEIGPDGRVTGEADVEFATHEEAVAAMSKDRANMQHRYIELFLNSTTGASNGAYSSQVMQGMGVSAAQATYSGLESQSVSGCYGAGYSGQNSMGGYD
Briefly: co-IP; HeLa cells co-transfected with Flag-hnRNP F, HA-ZFP91 and ECD plasmids (none or indicated doses); anti-Flag IP; ZFP91 detected with anti-HA antibodies.

Test [2] addresses T1, Flag-hnRNP F. Briefly: co-IP; SGC-7901 cells co-transfected with a Flag plasmid (Flag-hnRNP F or Flag-ECD) and HA-ZFP91; complexes of the Flag protein or of HA-ZFP91 immunoprecipitated; partner detected with HA or Flag antibodies.
The target of test [3] is Flag-ECD (wild-type human ecdysoneless homolog) (human) (UniProt O95905). The test is described as above.
The target of test [4] is T2, HA-hnRNP F (UniProt P52597).
T2 sequence: T1 sequence
Briefly: co-IP; HeLa cells transfected with Flag-ECD mutants, HA-hnRNP F and ZFP91; anti-HA IP; ZFP91 detected with anti-Flag antibodies.

These are yes or no findings as the source states them, for the method shown. In cells and extracts the contact can be indirect. Some binding calls cover weakened binding; strength is not graded here. Tags and fused reporters may be left off the sequences shown.

B1: HA-ZFP91 (enzyme, UniProt Q96JP5 1-570)
chain: MPGETEEPRPPEQQDQEGGEAAKAAPEEPQQRPPEAVAAAPAGTTSSRVLRGGRDRGRAAAAAAAAAVSRRRKAEYPRRRRSSPSARPPDVPGQQPQAAKSPSPVQGKKSPRLLCIEKVTTDKDPKEEKEEEDDSALPQEVSIAASRPSRGWRSSRTSVSRHRDTENTRSSRSKTGSLQLICKSEPNTDQLDYDVGEEHQSPGGISSEEEEEEEEEMLISEEEIPFKDDPRDETYKPHLERETPKPRRKSGKVKEEKEKKEIKVEVEVEVKEEENEIREDEEPPRKRGRRRKDDKSPRLPKRRKKPPIQYVRCEMEGCGTVLAHPRYLQHHIKYQHLLKKKYVCPHPSCGRLFRLQKQLLRHAKHHTDQRDYICEYCARAFKSSHNLAVHRMIHTGEKPLQCEICGFTCRQKASLNWHMKKHDADSFYQFSCNICGKKFEKKDSVVAHKAKSHPEVLIAEALAANAGALITSTDILGTNPESLTQPSDGQGLPLLPEPLGNSTSGECLLLEAEGMSKSYCSGTERVSLMADGKIFVGSGSSGGTEGLVMNSDILGATTEVLIEDSDSAGP
In the case of B1, the binding result in test [1], in test [2] and in test [3] was “binds” each time.

B2: ZFP91 (as co-expressed with HA-hnRNP F and Flag-ECD mutants, Fig. 6f) (enzyme, UniProt Q96JP5 1-570)
chain: B1 chain
In the case of B2, in test [4], the binding entry is “binds”.
